Here are results for six substances from PMC10223608 (Marine Drugs, 2023).

The nature of the data set: general procedure: solution-phase peptide synthesis; EDC·HCl/HOAt/DIPEA; DEPBT/DIPEA. To be noted: coupling step.

For the substance Boc-L-Ile-D-Ala-NMe-D-Phe-L-Pro-OMe, where the note is “over 2 steps from 20”, the step yield is given as 76% for 2 steps.

Turning to “(28R,29S)-Statine derivative-L-Ile-L-Ala-NMe-D-Phe-L-Pro-OMe”, the step yield (over 2 steps from 16) is 75% for 2 steps. For the substance “(28S,29R)-Statine derivative-L-Ile-L-Ala-NMe-D-Phe-L-Pro-OMe”, the step yield (over 2 steps from 16) was determined as 75% for 2 steps.

For the substance “(28R,29R)-Statine derivative-L-Ile-L-Ala-NMe-D-Phe-L-Pro-OMe”, the step yield (over 2 steps from 16) amounted to 77% for 2 steps. “(28R,29S)-Statine derivative-L-Ile-Gly-NMe-D-Phe-L-Pro-OMe” returned a step yield (over 2 steps from 14) of 81% for 2 steps.

“(28R,29S)-Statine derivative-L-Ile-D-Ala-NMe-D-Phe-L-Pro-OMe” had a step yield (over 2 steps from 15) of 76% for 2 steps.
